# Reference: the supplement of paper PMC8007513
# The list shows a part of the results. Most values come without repeats; read them as rough.
# System: Saccharomyces cerevisiae BY4743
# Assay: growth (OD600) with compound + IPBC relative to untreated control; higher = less growth inhibition
# Conditions: compound concentration: 133 uM; IPBC concentration: 0.5 ug/ml; 20 h
# Experimental: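 NMCCC compounds (133 uM) combined with IPBC (0.5 ug/ml) against Saccharomyces cerevisiae BY4743 in YPD, 96-well plates. Growth was read as OD600 at 20 h and expressed as % of the untreated control. Single pass.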
row,Structure (SMILES),growth
1,Cc1cc(-c2ccco2)n(CC(=O)NCc2ccccc2Cl)n1 + CCCCNC(=O)OCC#CI [3-iodo-2-propynyl butylcarbamate (IPBC)],93.4%
2,COC(=O)CC(NC(=O)c1sc(-c2ccccn2)nc1C)c1ccc(OC)c(OC)c1 (centres undefined) + CCCCNC(=O)OCC#CI [3-iodo-2-propynyl butylcarbamate (IPBC)],103%
3,CC1=CC\2=C(C=C1C)N(CC(=O)NCC3=CC=C(Cl)C=C3)C(=O)\C(=N2)C(F)(F)F + CCCCNC(=O)OCC#CI [3-iodo-2-propynyl butylcarbamate (IPBC)],87.7%
4,Cc1cccc(NC(=O)CCSc2nc3nc(C)ccc3o2)c1 + CCCCNC(=O)OCC#CI [3-iodo-2-propynyl butylcarbamate (IPBC)],98.5%
5,Cc1nc2cc(NC(C)C(=O)NCC(F)(F)F)ccc2o1 (centres undefined) + CCCCNC(=O)OCC#CI [3-iodo-2-propynyl butylcarbamate (IPBC)],98.2%
6,CC(C)CCNC(=O)Cn1c(=O)[nH]c2c(-c3ccccc3F)c[nH]c2c1=O + CCCCNC(=O)OCC#CI [3-iodo-2-propynyl butylcarbamate (IPBC)],80.2%
7,COc1ccc(NC(=O)c2cccnc2O)cc1N1CCCCC1=O + CCCCNC(=O)OCC#CI [3-iodo-2-propynyl butylcarbamate (IPBC)],96.4%
8,Cc1noc(C(=O)N2CCC(Cc3ccccc3)CC2)c1Cl + CCCCNC(=O)OCC#CI [3-iodo-2-propynyl butylcarbamate (IPBC)],90.5%
9,FC1=CC=CC(=C1)COC2=CC=C(NC(=O)CN3\C=C/C=C\C3=O)C=C2Cl + CCCCNC(=O)OCC#CI [3-iodo-2-propynyl butylcarbamate (IPBC)],106%
10,COC1=CC=C(NC(=O)CN2\C(=N/C3=C(C(=NO3)C)C2=O)C)C=C1OC + CCCCNC(=O)OCC#CI [3-iodo-2-propynyl butylcarbamate (IPBC)],98.2%
11,Cc1ccc(CNn2nnnc2N)s1 + CCCCNC(=O)OCC#CI [3-iodo-2-propynyl butylcarbamate (IPBC)],85.7%
12,CCCCn1c(SCc2ccccn2)nc2cc(S(=O)(=O)N(C)C)ccc21 + CCCCNC(=O)OCC#CI [3-iodo-2-propynyl butylcarbamate (IPBC)],96.5%
13,CCOC(=O)C1CCN(C(=O)c2ccc(OC)c(S(=O)(=O)NC)c2)CC1 + CCCCNC(=O)OCC#CI [3-iodo-2-propynyl butylcarbamate (IPBC)],95.4%
14,Cc1ccc(-c2csc(NC(=O)C(C)C)c2C(=O)O)c(C)c1 + CCCCNC(=O)OCC#CI [3-iodo-2-propynyl butylcarbamate (IPBC)],95.4%
15,N#Cc1ccc(NC(=O)COCC(=O)NCc2ccco2)cc1 + CCCCNC(=O)OCC#CI [3-iodo-2-propynyl butylcarbamate (IPBC)],77.6%
16,Cc1ccc(-c2cc(NC(=O)CNC(C)c3ccc(F)cc3F)on2)cc1 (centres undefined) + CCCCNC(=O)OCC#CI [3-iodo-2-propynyl butylcarbamate (IPBC)],83.1%
17,CCC(=O)Nc1nc2ccc(CCC(=O)Nc3c(Cl)cc(OC)cc3OC)cc2s1 + CCCCNC(=O)OCC#CI [3-iodo-2-propynyl butylcarbamate (IPBC)],92.6%
18,CC1=CC=C(C=C1)C2(\N=C(Cl)/C(=C3/C=C\C=C/N23)C#N)C(F)(F)F (centres undefined) + CCCCNC(=O)OCC#CI [3-iodo-2-propynyl butylcarbamate (IPBC)],98.3%
19,COc1ccccc1N(CCC(N)=O)C(=O)C1COc2ccccc2O1 (centres undefined) + CCCCNC(=O)OCC#CI [3-iodo-2-propynyl butylcarbamate (IPBC)],99.6%
20,COC1=CC=CC(=C1)\C2=C\CN(C(=O)N2)C3=CC=CC=C3O + CCCCNC(=O)OCC#CI [3-iodo-2-propynyl butylcarbamate (IPBC)],102%

# Some values from the entries so far.
# For growth, Cc1cc(-c2ccco2)n(CC(=O)NCc2ccccc2Cl)n1 + CCCCNC(=O)OCC#CI [3-iodo-2-propynyl butylcarbamate (IPBC)] has 93.4%
# For growth, COC(=O)CC(NC(=O)c1sc(-c2ccccn2)nc1C)c1ccc(OC)c(OC)c1 (centres undefined) + CCCCNC(=O)OCC#CI [3-iodo-2-propynyl butylcarbamate (IPBC)] has 103%
# For growth, COc1ccc(NC(=O)c2cccnc2O)cc1N1CCCCC1=O + CCCCNC(=O)OCC#CI [3-iodo-2-propynyl butylcarbamate (IPBC)] has 96.4%

# (next part)

row,Structure (SMILES),growth
1,Cc1ccccc1OCCN1C(=O)C(=O)c2cccc(C)c21 + CCCCNC(=O)OCC#CI [3-iodo-2-propynyl butylcarbamate (IPBC)],102%
2,COC(=O)C(C)(C)NC(=O)CCN1\C=N/C2=C(C1=O)C(=CS2)C3=CC=C(C)C=C3 + CCCCNC(=O)OCC#CI [3-iodo-2-propynyl butylcarbamate (IPBC)],103%
3,Cc1csc(SCC(=O)N(C)Cc2ccc(C)o2)n1 + CCCCNC(=O)OCC#CI [3-iodo-2-propynyl butylcarbamate (IPBC)],104%
4,CC(C)n1nnnc1SCc1nc(-c2ccccc2Cl)no1 + CCCCNC(=O)OCC#CI [3-iodo-2-propynyl butylcarbamate (IPBC)],89.8%
5,Nc1cc(N)nc(SC(C(=O)N2CCOCC2)c2ccccc2)n1 (centres undefined) + CCCCNC(=O)OCC#CI [3-iodo-2-propynyl butylcarbamate (IPBC)],108%
6,Cc1cc(C)c(NC(=O)CCCN(c2ccc3c(c2)OCO3)S(C)(=O)=O)c(C)c1 + CCCCNC(=O)OCC#CI [3-iodo-2-propynyl butylcarbamate (IPBC)],106%
7,CCn1c(CN2CCCCCC2=O)nnc1SCC(=O)NCC(C)C + CCCCNC(=O)OCC#CI [3-iodo-2-propynyl butylcarbamate (IPBC)],111%
8,COc1ccc(Br)c(C(=O)Nc2ccc(S(=O)(=O)C(F)F)cc2)c1 + CCCCNC(=O)OCC#CI [3-iodo-2-propynyl butylcarbamate (IPBC)],108%
9,CC(C)(C)OC(=O)NC1CCN(C(=O)Nc2ccc(Cl)c(C(F)(F)F)c2)CC1 + CCCCNC(=O)OCC#CI [3-iodo-2-propynyl butylcarbamate (IPBC)],102%
10,Cn1cccc1C(=O)NC(=O)CSc1nc2cc(Cl)c[nH]c-2n1 + CCCCNC(=O)OCC#CI [3-iodo-2-propynyl butylcarbamate (IPBC)],75.2%
11,Cc1nc(NC(=O)CSc2nncn2C2CC2)sc1C + CCCCNC(=O)OCC#CI [3-iodo-2-propynyl butylcarbamate (IPBC)],92%
12,Cc1cc(N)n(S(=O)(=O)c2cn(C)nc2C)n1 + CCCCNC(=O)OCC#CI [3-iodo-2-propynyl butylcarbamate (IPBC)],104%
13,CCN(CC)C(=O)c1sc(N2C(=O)Nc3ccccc3N2O)c(C(=O)OC)c1C + CCCCNC(=O)OCC#CI [3-iodo-2-propynyl butylcarbamate (IPBC)],91.9%
14,COC(=O)c1cc(OCC(=O)c2ccc[nH]2)cc(C(=O)OC)c1 + CCCCNC(=O)OCC#CI [3-iodo-2-propynyl butylcarbamate (IPBC)],95.4%
15,COC(=O)CNS(=O)(=O)c1ccc(NC(=O)c2cc3c(s2)CCCCCC3)cc1 + CCCCNC(=O)OCC#CI [3-iodo-2-propynyl butylcarbamate (IPBC)],89.4%
16,CC(C)C1O\C(=N/C1=O)NC(=O)NC(C)(C)C2=CC=CC(=C2)C(C)=C (centres undefined) + CCCCNC(=O)OCC#CI [3-iodo-2-propynyl butylcarbamate (IPBC)],98.9%
17,CC(C)CNC(=O)CN1\N=N/C2=C(C1=O)C3=C(CC(CC3)C(C)(C)C)S2 (centres undefined) + CCCCNC(=O)OCC#CI [3-iodo-2-propynyl butylcarbamate (IPBC)],92.5%
18,CSc1ncc(Cl)c(C(=O)N2CCN(Cc3csc(C)n3)CC2)n1 + CCCCNC(=O)OCC#CI [3-iodo-2-propynyl butylcarbamate (IPBC)],110%
19,CCc1ccc(OCC(=O)NC2CCCCC2)c(-n2cnnc2)c1 + CCCCNC(=O)OCC#CI [3-iodo-2-propynyl butylcarbamate (IPBC)],83.3%
